# Experimental data taken from US9045490B2, “Use of parthenolide derivatives as antileukemic and cytotoxic agents” (University of Kentucky, priority 2003, dated 2015).
# Some of these results come from one statement about several compounds together. At least one structure is not confirmed: it was looked up by name or label, or the drawing left a doubt.
# Test system: hormone refractory prostate cancer cell line CWR22Rv1
# Test: Clonogenic assay
# Type: cell-based
# Conditions: at 2 μm
structure (smiles),measurement,value
"C/C1=C\CC[C@@]2(C)O[C@H]2[C@H]2OC(=O)[C@H](CN3CCCCC3)[C@@H]2CC1 [PipPT, 11S,11,13-Dihydro,13-(piperidin-1-yl)parthenolide]",reduction of cellular proliferation,up to 80%
